{"sequences": {"note": "Amino acid sequences for entries named in this document (tags omitted). A change or cut given only in a name is not applied to a line headed by its entry.", "UniProt P29466": "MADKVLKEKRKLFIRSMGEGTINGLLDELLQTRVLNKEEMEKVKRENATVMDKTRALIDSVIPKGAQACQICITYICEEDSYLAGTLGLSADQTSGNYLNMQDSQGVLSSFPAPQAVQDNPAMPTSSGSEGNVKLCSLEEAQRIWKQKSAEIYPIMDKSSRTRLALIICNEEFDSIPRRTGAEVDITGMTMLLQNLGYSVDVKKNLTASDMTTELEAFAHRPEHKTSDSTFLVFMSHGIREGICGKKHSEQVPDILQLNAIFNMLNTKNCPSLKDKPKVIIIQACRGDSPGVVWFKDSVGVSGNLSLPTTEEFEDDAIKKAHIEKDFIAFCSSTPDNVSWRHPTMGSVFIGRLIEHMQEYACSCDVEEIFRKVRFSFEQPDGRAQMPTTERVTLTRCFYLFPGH"}, "source": "PubChem BioAssay AID929", "about": "(National Center for Advancing Translational Sciences (NCATS), 2007)", "note": "The other results are listed elsewhere or left out. These are further read-outs of the screen, such as a control signal, another cell line or another target. No call is given for them. Compounds called inactive in the main read-out are mostly missing here. Potencies come from curve fits of mixed quality, noted in brackets.", "data": [{"target": "Caspase-1 (Homo sapiens) (UniProt P29466)", "assay": "Concentration-Response Counterscreen for Redox Active Inhibitors of Caspase-1: Cysteine", "conditions": "recombinant caspase-1, fluorogenic substrate, cysteine buffer; measured here: 1 hr endpoint read", "text": "NIH Molecular Libraries Screening Centers Network [MLSCN]\nNIH Chemical Genomics Center [NCGC]\nPI Name: Dr. James Wells,\nDr. Enrique Perez-Paya, Dr.Janice Williams, Dr. Dennis Wolan, a person\nThe caspases (Cysteine Aspartyl Protease) comprise a related family of 14 dimeric proteases that are critical mediators of apoptosis (programmed cell death) and inflammation. The caspases represent an important class of drug targets for stroke, ischemia, cancer and inflammatory diseases. […] One goal of this project was to identify compounds that act as allosteric inhibitors via stabilizing the procaspase form of the enzyme. Previous work in Well's laboratory has shown that such allosteric inhibitors can be identified and these act by binding at the dimer interface of enzyme (Hardy, Lam et al., 2004).\nThe biochemical assay was configured using purified caspase 1 at a high enzyme concentration to promote formation of the homodimers and thus facilitate the identification of allosteric inhibitors. The overall goal was to identify reversible inhibitors with better drug-like properties than the currently available set of aspartyl-containing peptidomimetics that covalently bind the active site. Caspase 1 was assayed using the profluorescent substrate Ac-WEHD-AFC. After initiation of the assay with substrate the plates were rapidly read using an automated robotic system (Kalypsys, Inc.) to maintain consistent timing. A kinetic mode of detection was used where the initial rate was collected (estimated final product formation was ~10%). Product formation was also measured after 1 hour. Compounds were screened as a concentration-titration series that ranged from 57 uM to 0.7 nM.\nCompounds that generate reactive oxygen species can lead to high hit rates in HTS biochemical assays. This mechanism was cited by Smith et al. (2002) as the main artifact responsible for >85% of the hits in an HTS against caspase 8. We identified a series of putative inhibitors in an enzymatic screen of caspase 1 and we performed two assays to test if these compounds operated by such a redox-active mechanism. Based on the published work, compounds that appear active due to a redox-active mechanism will show shifts in inhibition potency when the redox potential of the buffer is changed. Compounds that show a change in IC50 upon switching the buffer system from DTT to cysteine or DTT and the enzyme catalase are suspected to be redox active compounds.\nNCGC Assay Protocol Summary:\nCaspase 1 was prepared in buffer (50 mM HEPES pH 7.5, 50 mM KCl, 200 mM NaCl, 10 mM Cys (Aldrich cat# 861677), 0.1% CHAPS) at a concentration of 66.6 nM and 3 uL was dispensed to all wells using black solid Kalypsys 1536-well plates. 20 nL of DMSO containing compounds was added using a pin-tool (Kalypsys Inc.) to columns 5-48. Then 20 nL of DMSO solution from a control plate was added to columns 1-4. Controls were: Column 1, 16 point titration with each concentration in duplicate (1:1 dilutions in DMSO; final starting concentration was 57 uM) of the caspase 1 inhibitor Ac-WEHD-CHO (Alexis Biochemicals); Column 2, a 16 point titration with each concentration in duplicate of the free AFC fluorophore prepared in DMSO (Alexis Biochemicals), final starting was 40 uM; Column 3 neutral (DMSO only) control; Column 4: DMSO alone, to serve as a negative control (no substrate was added). Then 1 uL of 20 uM the substrate Ac-WEHD-AFC (Alexis Biochemicals) prepared in the same buffer was dispensed to all wells except columns 2 and 4 and the plates were immediately transferred (< 1 min) to the Viewlux. The plates were then exposed using 405 nm excitation/520 nm emission filters for 4 sec and read at 20 sec intervals for 3 min. Final enzyme concentration was 50 nM and the final substrate concentration was 5 uM.\nConcentration-response curves were fitted to the data calculated from slope of the linear regression of fluorescent intensity versus time (the rate). […]", "values": [{"smiles": "Cc1cc(C)cc(C(=O)N(C)[C@H](Cc2ccc(-c3ccccc3)cc2)C(=O)N[C@@H](Cc2c[nH]c3ccccc23)C(=O)O)c1", "AC50": "15.8 µM [falling, full curve]"}, {"smiles": "Cn1ncnc2c(=O)n(C)c(=O)nc1-2", "AC50": "3.98 µM [falling, partial curve, poor fit]"}, {"smiles": "O=C(O)c1cc[c]([Hg][Cl])cc1", "AC50": "2 µM [falling, full curve]"}, {"smiles": "C[C@]12Cc3cn4c(nc3C=C1CC[C@H]1[C@@H]2CC[C@@]2(C)[C@H]1CC[C@@]2(O)C#N)nc1ccccc14", "AC50": "31.6 µM [rising, partial curve]"}, {"smiles": "[C-]1=CC=CC1.[C-]1=CC=CC1.[Cl-].[Cl-].[Ti+4]", "AC50": "20 µM [falling, partial curve, poor fit]"}, {"smiles": "CC(=O)Nc1cc(OC(C)=O)c2nonc2c1OC(C)=O", "AC50": "15.8 µM [falling, partial curve]"}]}]}
